{"source": "PubChem BioAssay AID504764 (Drosophila RNAi Screening Center, 2011)", "test": "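Genome-wide screen for regulators of Notch-driven gene expression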 (primary screen)", "cell system": "Drosophila Kc167 cells", "reagents": "long dsRNA against Drosophila genes", "timing": "about 5 days (4 days dsRNA, then 24 h after transfection)", "conditions": "transfection of constitutively active membrane-tethered Notch lacking the extracellular domain, read 24 h later", "measured": "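Firefly luciferase from an E(spl)m3 reporter with active Notch, plus control-promoter and uninduced reporter wells for normalisation; unnormalised counts, duplicate wells a and b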", "direction": "induced reporter light, run 1, well a and induced reporter light, run 1, well b: higher = more light from the Notch target reporter with active Notch; control promoter light, run 1, well a and control promoter light, run 1, well b: higher = more light from the viral control promoter (cell number, transfection, viability); uninduced reporter light, run 1, well a: higher = more light from the Notch target reporter without active Notch", "active means": "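Wells with low control signal or poorly matching duplicates excluded; duplicates averaged; per source plate, z beyond ±2 for induced/control log2 ratio or beyond ±1.8 for induced/uninduced marks a hit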", "meaning of the calls": "active = modifier hit (raised or lowered Notch signal); inactive = not a hit", "note": "The screen tested about 22,000 reagents; below is a random part of those that have a named target and a result. Over the whole deposit, 403 (1.9%) were called active. 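Unnormalised raw counts per well; ratio z-scores behind the hit calls and whether each hit raises or lowers signal are not deposited.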 Not stated in the record: the amount of reagent."}
{"gene knocked down":"Tdc2","amplicon":"DRSC04999","induced reporter light, run 1, well a":2.00e5,"induced reporter light, run 1, well b":1.72e5,"control promoter light, run 1, well a":2.02e5,"control promoter light, run 1, well b":2.01e5,"uninduced reporter light, run 1, well a":12960,"call":"inactive"}
{"gene knocked down":"Nfs1","amplicon":"DRSC02154","induced reporter light, run 1, well a":2.16e5,"induced reporter light, run 1, well b":2.09e5,"control promoter light, run 1, well a":1.66e5,"control promoter light, run 1, well b":1.69e5,"uninduced reporter light, run 1, well a":14150,"call":"inactive"}
{"gene knocked down":"meso18E","amplicon":"DRSC20351","induced reporter light, run 1, well a":55680,"induced reporter light, run 1, well b":63365,"control promoter light, run 1, well a":70480,"control promoter light, run 1, well b":75600,"uninduced reporter light, run 1, well a":8445,"call":"inactive"}
{"gene knocked down":"Ktl","amplicon":"DRSC14270","induced reporter light, run 1, well a":1.73e5,"induced reporter light, run 1, well b":1.59e5,"control promoter light, run 1, well a":2.31e5,"control promoter light, run 1, well b":2.59e5,"uninduced reporter light, run 1, well a":14640,"call":"inactive"}
{"gene knocked down":"CG17681","amplicon":"DRSC02632","induced reporter light, run 1, well a":1.29e5,"induced reporter light, run 1, well b":1.31e5,"control promoter light, run 1, well a":1.35e5,"control promoter light, run 1, well b":1.53e5,"uninduced reporter light, run 1, well a":11020,"call":"inactive"}
{"gene knocked down":"CG4168","amplicon":"DRSC01446","induced reporter light, run 1, well a":86695,"induced reporter light, run 1, well b":1.03e5,"control promoter light, run 1, well a":91035,"control promoter light, run 1, well b":88830,"uninduced reporter light, run 1, well a":9600,"call":"inactive"}
{"gene knocked down":"CG4168","amplicon":"DRSC01447","induced reporter light, run 1, well a":1.19e5,"induced reporter light, run 1, well b":85660,"control promoter light, run 1, well a":1.17e5,"control promoter light, run 1, well b":72170,"uninduced reporter light, run 1, well a":8145,"call":"inactive"}
{"gene knocked down":"CG4168","amplicon":"DRSC01933","induced reporter light, run 1, well a":2.22e5,"induced reporter light, run 1, well b":1.85e5,"control promoter light, run 1, well a":1.87e5,"control promoter light, run 1, well b":1.90e5,"uninduced reporter light, run 1, well a":17470,"call":"inactive"}
{"gene knocked down":"CG4168","amplicon":"DRSC22789","call":"active"}
{"gene knocked down":"CG9795","amplicon":"DRSC12336","induced reporter light, run 1, well a":71880,"induced reporter light, run 1, well b":61945,"control promoter light, run 1, well a":32295,"control promoter light, run 1, well b":34975,"uninduced reporter light, run 1, well a":7985,"call":"inactive"}
{"gene knocked down":"CG16986","amplicon":"DRSC08502","induced reporter light, run 1, well a":1.29e5,"induced reporter light, run 1, well b":1.22e5,"control promoter light, run 1, well a":1.87e5,"control promoter light, run 1, well b":1.49e5,"uninduced reporter light, run 1, well a":7185,"call":"inactive"}
{"gene knocked down":"sut4","amplicon":"DRSC07703","induced reporter light, run 1, well a":15480,"induced reporter light, run 1, well b":14440,"control promoter light, run 1, well a":17885,"control promoter light, run 1, well b":15450,"uninduced reporter light, run 1, well a":1295,"call":"inactive"}

An excerpt of the results above, for reference:
{"gene knocked down":"CG17681","amplicon":"DRSC02632","induced reporter light, run 1, well a":1.29e5,"induced reporter light, run 1, well b":1.31e5,"control promoter light, run 1, well a":1.35e5,"control promoter light, run 1, well b":1.53e5,"uninduced reporter light, run 1, well a":11020,"call":"inactive"}
{"gene knocked down":"CG4168","amplicon":"DRSC01446","induced reporter light, run 1, well a":86695,"induced reporter light, run 1, well b":1.03e5,"control promoter light, run 1, well a":91035,"control promoter light, run 1, well b":88830,"uninduced reporter light, run 1, well a":9600,"call":"inactive"}
